{"source": "PubChem BioAssay AID652272 (Drosophila RNAi Screening Center, 2013)", "assay": "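Finding fly genes that regulate Hedgehog signal transduction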 (primary screen)", "cells": "Drosophila clone 8 (Cl8) cells", "reagent": "long dsRNA against Drosophila genes", "detection": "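Plate reader light from a firefly reporter under a ptc promoter fragment that responds to Hedgehog, with Renilla light as transfection reference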", "scale": "firefly Hh reporter signal: higher = more ptc reporter light; Renilla reference signal: higher = more Renilla control light", "call rule": "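Called a hit if the two-replicate mean z-score lies below -2 or above +3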", "calls": "active = hit: reporter lowered or raised; inactive = not a hit", "note": "In all, the deposit lists about 21,000 reagents; shown is an unselected part of those with a known target gene and a result. Of all reagents, 503 (2.4%) are marked active. 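Raw plate light values, not normalised; calls rest on replicate z-scores that were not deposited; hits include reporter decreases as well as increases.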 A number with no mark means an inactive call. The record does not give: the amount of reagent, the time to read-out."}
{"predicted target":"CG9072","DRSC id":"DRSC20147","firefly Hh reporter signal, replicate 1":78976,"firefly Hh reporter signal, replicate 2":2.31e5,"Renilla reference signal, replicate 1":2956,"Renilla reference signal, replicate 2":9144}
{"predicted target":"fs(1)Yb","DRSC id":"DRSC18777","firefly Hh reporter signal, replicate 1":73485,"firefly Hh reporter signal, replicate 2":2.18e5,"Renilla reference signal, replicate 1":1776,"Renilla reference signal, replicate 2":9085}
{"predicted target":"alpha-Est10","DRSC id":"DRSC12613","firefly Hh reporter signal, replicate 1":47233,"firefly Hh reporter signal, replicate 2":95297,"Renilla reference signal, replicate 1":1121,"Renilla reference signal, replicate 2":2727}
{"predicted target":"CG7322","DRSC id":"DRSC20036","firefly Hh reporter signal, replicate 1":68983,"firefly Hh reporter signal, replicate 2":1.60e5,"Renilla reference signal, replicate 1":1290,"Renilla reference signal, replicate 2":7675}
{"predicted target":"Dbct","DRSC id":"DRSC19951","firefly Hh reporter signal, replicate 1":1.39e5,"firefly Hh reporter signal, replicate 2":91370,"Renilla reference signal, replicate 1":3074,"Renilla reference signal, replicate 2":2368}
{"predicted target":"CG13045","DRSC id":"DRSC09926","firefly Hh reporter signal, replicate 1":88055,"Renilla reference signal, replicate 1":4738,"Renilla reference signal, replicate 2":2586}
{"predicted target":"CG17124","DRSC id":"DRSC02580","firefly Hh reporter signal, replicate 1":1.68e5,"firefly Hh reporter signal, replicate 2":1.01e5,"Renilla reference signal, replicate 1":4316,"Renilla reference signal, replicate 2":8573}
{"predicted target":"CG6592","DRSC id":"DRSC10669","firefly Hh reporter signal, replicate 1":43024,"firefly Hh reporter signal, replicate 2":40678,"Renilla reference signal, replicate 1":4443,"Renilla reference signal, replicate 2":3128}
{"predicted target":"Sym","DRSC id":"DRSC12301","firefly Hh reporter signal, replicate 1":"92928 (active)","firefly Hh reporter signal, replicate 2":63634,"Renilla reference signal, replicate 1":6503,"Renilla reference signal, replicate 2":4177}
{"predicted target":"MTA1-like","DRSC id":"DRSC12382","firefly Hh reporter signal, replicate 1":63237,"firefly Hh reporter signal, replicate 2":66284,"Renilla reference signal, replicate 1":2384,"Renilla reference signal, replicate 2":2049}
{"predicted target":"CG14613","DRSC id":"DRSC20625","firefly Hh reporter signal, replicate 1":98231,"firefly Hh reporter signal, replicate 2":98914,"Renilla reference signal, replicate 1":2205,"Renilla reference signal, replicate 2":2490}
{"predicted target":"E(spl)m3-HLH","DRSC id":"DRSC16694","firefly Hh reporter signal, replicate 1":2.49e5,"firefly Hh reporter signal, replicate 2":37955,"Renilla reference signal, replicate 1":15977,"Renilla reference signal, replicate 2":1434}
{"predicted target":"upd1","DRSC id":"DRSC20358","firefly Hh reporter signal, replicate 1":91692,"firefly Hh reporter signal, replicate 2":3.59e5,"Renilla reference signal, replicate 1":2370,"Renilla reference signal, replicate 2":14802}
{"predicted target":"CG32533","DRSC id":"DRSC19443","firefly Hh reporter signal, replicate 1":1.17e5,"firefly Hh reporter signal, replicate 2":95062,"Renilla reference signal, replicate 1":2944,"Renilla reference signal, replicate 2":1607}
{"predicted target":"CG32533","DRSC id":"DRSC19553","firefly Hh reporter signal, replicate 1":85264,"firefly Hh reporter signal, replicate 2":1.36e5,"Renilla reference signal, replicate 1":3153,"Renilla reference signal, replicate 2":5808}
{"predicted target":"PGRP-SC1b","DRSC id":"DRSC07215","firefly Hh reporter signal, replicate 1":66497,"firefly Hh reporter signal, replicate 2":36163,"Renilla reference signal, replicate 1":2899,"Renilla reference signal, replicate 2":1544}
{"predicted target":"Rph","DRSC id":"DRSC17790","firefly Hh reporter signal, replicate 1":63222,"firefly Hh reporter signal, replicate 2":1.75e5,"Renilla reference signal, replicate 1":1936,"Renilla reference signal, replicate 2":6723}
{"predicted target":"Bx42","DRSC id":"DRSC17743","firefly Hh reporter signal, replicate 1":"21265 (active)","firefly Hh reporter signal, replicate 2":23990,"Renilla reference signal, replicate 1":949,"Renilla reference signal, replicate 2":1364}
{"predicted target":"REG","DRSC id":"DRSC20273","firefly Hh reporter signal, replicate 1":63787,"firefly Hh reporter signal, replicate 2":2.92e5,"Renilla reference signal, replicate 1":1992,"Renilla reference signal, replicate 2":11200}
{"predicted target":"Acp53C14a","DRSC id":"DRSC07224","firefly Hh reporter signal, replicate 1":69267,"firefly Hh reporter signal, replicate 2":31344,"Renilla reference signal, replicate 1":1845,"Renilla reference signal, replicate 2":2013}
{"predicted target":"CG17917","DRSC id":"DRSC12570","firefly Hh reporter signal, replicate 1":56164,"firefly Hh reporter signal, replicate 2":1.12e5,"Renilla reference signal, replicate 1":2298,"Renilla reference signal, replicate 2":3433}
{"predicted target":"ng2","DRSC id":"DRSC18803","firefly Hh reporter signal, replicate 1":84100,"firefly Hh reporter signal, replicate 2":2.65e5,"Renilla reference signal, replicate 1":3219,"Renilla reference signal, replicate 2":8333}
{"predicted target":"CG34396","DRSC id":"DRSC04245","firefly Hh reporter signal, replicate 1":1.38e5,"firefly Hh reporter signal, replicate 2":68124,"Renilla reference signal, replicate 1":3515,"Renilla reference signal, replicate 2":7124}
{"predicted target":"CG34396","DRSC id":"DRSC04246","firefly Hh reporter signal, replicate 1":85361,"firefly Hh reporter signal, replicate 2":61931,"Renilla reference signal, replicate 1":2073,"Renilla reference signal, replicate 2":4470}
{"predicted target":"mei-38","DRSC id":"DRSC18564","firefly Hh reporter signal, replicate 1":81878,"firefly Hh reporter signal, replicate 2":1.38e5,"Renilla reference signal, replicate 1":3572,"Renilla reference signal, replicate 2":6167}
{"predicted target":"CG11400","DRSC id":"DRSC06070","firefly Hh reporter signal, replicate 1":63543,"firefly Hh reporter signal, replicate 2":42819,"Renilla reference signal, replicate 1":1728,"Renilla reference signal, replicate 2":3241}
{"predicted target":"Fer1HCH","DRSC id":"DRSC16671","firefly Hh reporter signal, replicate 1":96742,"firefly Hh reporter signal, replicate 2":66640,"Renilla reference signal, replicate 1":2668,"Renilla reference signal, replicate 2":2420}

Single entries from the list.
upd1 [DRSC20358], firefly Hh reporter signal, replicate 1 → 91692
CG13045 [DRSC09926], Renilla reference signal, replicate 1 = 4738
For “firefly Hh reporter signal, replicate 2”, CG11400 [DRSC06070] has 42819
CG32533 [DRSC19553], firefly Hh reporter signal, replicate 2: 1.36e5
